# Measurements published in PubChem BioAssay AID504467 (National Center for Advancing Translational Sciences (NCATS), 2011).
# In all, about 330,000 compounds went through this assay and about 7,700 (2.3%) were called active. Inconclusive means that the source gave no clear call. Such entries were picked first, then a sample of the others. Calls come from the whole dose curve; as a rule, active = well fitted inhibition curve with a large enough effect; inconclusive = small, poorly fitted or top-dose-only effect, or effect the other way; inactive = flat fitted curve, though single readings scatter. Potencies beside an inconclusive call are fits to weak or partial responses and may not hold up.
# Test: qHTS screen for small molecules that inhibit ELG1-dependent DNA repair in human embryonic kidney (HEK293T) cells expressing luciferase-tagged ELG1; note: nearly all actives have a fitted effect of over 55% in size
# Conditions: HEK293T ELG1-luciferase reporter, luminescence, 16 h, DNA damage induced by 5-fluorouridine; series mostly up to 46.1 µM
# In short: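 DMSO vehicle served as the neutral condition. Each well held 2,000 cells given 5-fluorouridine plus compound; after 16 hr at 37 °C/5% CO2, ONE-Glo was added and luciferase measured 30 min later.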
# Potency is the fitted concentration of half-maximal effect.
row,Compound,Potency
1,Cc1cc(C)nc(CCNC(=O)c2cc(COc3c(C)cccc3C)on2)n1,inactive
2,COc1ccnc(Oc2ccc(F)cc2)c1C(=O)N/C=N/OCc1ccc(Cl)cc1Cl,"inconclusive: 29.1 µM [inhibitor, single point]"
3,CC(=O)N(c1nnc(-c2cccc(C)c2)s1)C1CCCC1,"inconclusive: 20.6 µM [activator, partial curve]"
4,CC1=NN(c2ccc(C(=O)O)c(N)c2)C(=O)C1,"inconclusive: 6.51 µM [inhibitor, single point]"
5,O=C(Cn1cnnn1)OCC(=O)c1ccc(Cl)s1,"inconclusive: 0.206 µM [inhibitor, partial curve]"
6,Cc1c(C(=O)N(C)Cc2ccccc2)oc2c(Cl)cccc12,inactive
7,Cc1nc(N2CCN(C(c3ccccc3)c3ccccc3)CC2)nc2c1C(=O)CCC2,inactive
8,CCOc1ncccc1C(=O)OCC(=O)c1ccc(OC)c(OC)c1,inactive
9,Cc1ccc(C)c(N2CCN(C(=O)C3CCN(S(=O)(=O)c4c(C)noc4C)CC3)CC2)c1,active: 11.6 µM
10,O=C(Nc1cccnc1)c1ccc(Cl)c(S(=O)(=O)N2CCCCCC2)c1,active: 20.6 µM
11,COc1ccccc1C(=O)NNC(=S)NC(=O)c1ccco1,"inconclusive: 29.1 µM [activator, single point]"
12,O=c1[nH]c(C2CCN(S(=O)(=O)c3ccc(F)cc3)CC2)nc2c1nnn2Cc1ccc2c(c1)OCCO2,active: 25.9 µM
13,C=CCOc1ccc(/C(CC)=N/O)cc1OC,"inconclusive: 16.4 µM [activator, partial curve, poor fit]"
14,COc1cc(-c2nnc(NC(=O)CS(=O)(=O)c3ccc(F)cc3)o2)cc(OC)c1OC,inactive
15,O=c1cc(CSc2nc3ccccc3[nH]2)c2ccccc2[nH]1,"inconclusive: 18.4 µM [activator, partial curve]"
16,O=C(c1ccc([N+](=O)[O-])cc1)N1CCSC1c1cccc(Cl)c1 (centres undefined),inactive
17,COc1ccc(C(=O)Nc2ccc3c(c2)nc2n3CCSC2)cc1,"inconclusive: 3.66 µM [activator, full curve]"
18,Cc1oc2ccc(OCc3ccc(Br)cc3)cc2c1C(=O)O,"inconclusive: 7.3 µM [inhibitor, single point]"
19,COc1ccc(NC(=O)CN(C2CCCCC2)S(C)(=O)=O)cc1Cl,"inconclusive: 32.6 µM [inhibitor, single point]"
20,CC(C)(C)c1ccc(C(=O)CS(=O)(=O)c2ccccc2)cc1,"inconclusive: 5.8 µM [activator, partial curve]"
21,COc1ccc(C(=O)NCCc2c[nH]c3ccccc23)cc1S(=O)(=O)N1CCCCC1C (centres undefined),inactive
22,Cc1ccc(O)c(C=Nc2cc(C)ccc2O)c1,inactive
23,COc1cc(NC(=O)c2cc3nc(-c4ccccc4)cc(-c4ccccc4)n3n2)cc(OC)c1OC,active: 10 µM

row,Compound,Potency
1,CCCc1nnc2n1N=C(c1ccc(OC)c(OC)c1)CS2,"inconclusive: 14.6 µM [activator, partial curve]"
2,CC(C)(C)OC(=O)CNC(=O)c1[nH]cnc1C(=O)N[C@@H](Cc1ccccc1)C(=O)OC(C)(C)C,"inconclusive: 23.1 µM [inhibitor, partial curve]"
3,CCCCN(C(=O)c1ccc(-n2nc(C)cc2C)cc1)c1c(N)n(CCC)c(=O)[nH]c1=O,inactive
4,N#CCC(=O)N/N=C\c1cccc(OC/C=C/c2ccccc2)c1,"inconclusive: 0.517 µM [activator, full curve]"
5,N#Cc1nc(Cc2ccccc2)oc1NCCCn1ccnc1,"inconclusive: 25.9 µM [activator, single point]"
6,CC(C)CCn1c(Sc2nc3ccccc3s2)nc2c1c(=O)[nH]c(=O)n2C,"inconclusive: 23.1 µM [inhibitor, partial curve]"
7,Cc1cccc(-c2noc(CN(C(=O)c3ccc(Br)o3)C(C)C)n2)c1,"inconclusive: 29.1 µM [inhibitor, single point]"
8,C#CCN1C=C(C(=O)OCC)C(C)N(Cc2ccccc2I)S1(=O)=O (centres undefined),"inconclusive: 9.2 µM [inhibitor, partial curve, poor fit]"
9,CC1CCN(C(=O)c2ccc(NC3=C(Cl)C(=O)N(Cc4ccccc4)C3=O)cc2)CC1,active: 10.3 µM
10,COc1ccc(NC(=O)Cc2coc3ccc4ccccc4c23)cc1S(=O)(=O)N1CCOCC1,"inconclusive: 29.1 µM [inhibitor, single point]"
11,COc1cc2c(C(=O)N3CCN(C)CC3)c(CSc3ccccc3)n(C)c2cc1Br,"inconclusive: 29.1 µM [inhibitor, single point]"
12,C[C@H](CO)N1C[C@H](C)[C@@H](CN(C)S(=O)(=O)c2ccccc2)Oc2c(NC(=O)NC3CCCCC3)cccc2C1=O,"inconclusive: 25.9 µM [inhibitor, single point]"
13,COc1ccc(NC(=O)Nc2cccc3c2O[C@H](CN(C)S(=O)(=O)c2c(C)noc2C)[C@@H](C)CN([C@H](C)CO)C3=O)cc1,"inconclusive: 13 µM [inhibitor, partial curve]"
14,CCc1cc([N+](=O)[O-])cc(CC)c1N,"inconclusive: 2.59 µM [inhibitor, partial curve, poor fit]"
15,CC(C)c1ccc(NC(=O)COC(=O)COc2ccccc2)cc1,"inconclusive: 13 µM [activator, single point]"
16,COc1ccc(NC(=O)CCC(=O)c2cccs2)cc1Cl,inactive
17,O=C(Nc1ccccc1)c1ccc(CSc2ncccn2)cc1,"inconclusive: 4.61 µM [activator, full curve, poor fit]"
18,Cc1cc(S(=O)(=O)N2CCOCC2)ccc1OCC(=O)NCCCn1ccnc1,"inconclusive: 8.2 µM [activator, partial curve, poor fit]"
19,CS(=O)c1ccccc1-c1nc(-c2cc(C(F)(F)F)cc(C(F)(F)F)c2)no1 (centres undefined),inactive
20,COc1ccc(-c2cc(C(=O)N(C)CCc3ccc(OC)c(OC)c3)c3ccccc3n2)cc1,inactive
21,Cc1occc1C(=O)NNC(=O)c1ccccc1[N+](=O)[O-],"inconclusive: 20.6 µM [activator, partial curve, poor fit]"
22,Cc1cnc(C(=O)OCc2ccc(Br)cc2)cn1,"inconclusive: 14.6 µM [activator, partial curve, poor fit]"
23,Cn1c(O)c(N=NC(=S)Nc2ccccc2F)c2cc(S(=O)(=O)N3CCOCC3)ccc21,active: 1.83 µM

# Nothing new here: an excerpt of the list.
row,Compound,Potency
20,CC(C)(C)c1ccc(C(=O)CS(=O)(=O)c2ccccc2)cc1,"inconclusive: 5.8 µM [activator, partial curve]"
21,COc1ccc(C(=O)NCCc2c[nH]c3ccccc23)cc1S(=O)(=O)N1CCCCC1C (centres undefined),inactive
22,Cc1ccc(O)c(C=Nc2cc(C)ccc2O)c1,inactive
23,COc1cc(NC(=O)c2cc3nc(-c4ccccc4)cc(-c4ccccc4)n3n2)cc(OC)c1OC,active: 10 µM
1,CCCc1nnc2n1N=C(c1ccc(OC)c(OC)c1)CS2,"inconclusive: 14.6 µM [activator, partial curve]"
2,CC(C)(C)OC(=O)CNC(=O)c1[nH]cnc1C(=O)N[C@@H](Cc1ccccc1)C(=O)OC(C)(C)C,"inconclusive: 23.1 µM [inhibitor, partial curve]"

# (list continues)

row,Compound,Potency
1,C[C@H](CO)N1C[C@H](C)[C@@H](CN(C)S(=O)(=O)c2ccc(F)cc2)Oc2c(NC(=O)Nc3ccc(C(F)(F)F)cc3)cccc2C1=O,"inconclusive: 20.6 µM [inhibitor, single point]"
2,COc1cccc(C2CC(C(F)(F)F)n3ncc(C(=O)NCC4CCCO4)c3N2)c1 (centres undefined),"inconclusive: 23.1 µM [inhibitor, single point]"
3,Cc1ccc(-n2nc3c(=O)n(CC(=O)NCc4ccccn4)nc(C)c3c2C)cc1,inactive
4,CC(=O)O[C@@H]1[C@H]2[C@@H](C[C@@H](C)[C@@H]3CCC(=O)[C@@]13C)OC(=O)[C@@H]2C,inactive
5,O=C(Cc1ccc([N+](=O)[O-])cc1)N/N=C/c1ccccc1F,inactive
6,Cc1ccc(CNC(=O)Cn2c(=O)c3sccc3n(Cc3cccc([N+](=O)[O-])c3)c2=O)cc1,"inconclusive: 4.11 µM [inhibitor, full curve]"
7,CC(C)CC(=O)Nc1nc(-c2ccc(S(=O)(=O)N3CCOCC3)cc2)cs1,"inconclusive: 20.6 µM [inhibitor, partial curve]"
8,O=c1nc2s/c(=C\c3ccc(-c4ccccc4[N+](=O)[O-])o3)c(=O)n2nc1-c1ccccc1,inactive
9,CC(C)OP(=O)(c1ccc(N(C)C)cc1)C(O)c1ccc(C(C)C)cc1 (centres undefined),"inconclusive: 23.1 µM [inhibitor, partial curve, poor fit]"
10,c1cc(N2CCCC2)ccc1C(c1nnnn1C1CCCCC1)N1CCOCC1 (centres undefined),inactive
11,CCc1ccc(C2CC(=O)N3CN(c4ccccc4)CSC3=C2C#N)cc1 (centres undefined),inactive
12,CCC(CC)NC(=O)c1nn(Cc2ccccc2)c(=O)c2ccccc12,"inconclusive: 29.1 µM [inhibitor, single point]"
13,Cn1nnc(-c2ccc(OCc3ccccc3F)cc2)n1,"inconclusive: 4.11 µM [activator, partial curve]"
14,Cc1cccc(NC(=O)CN(C)S(=O)(=O)c2ccc(-c3ccc(=O)[nH]n3)s2)c1C,"inconclusive: 29.1 µM [inhibitor, single point]"
15,Oc1ccc[n+](/C=C\c2ccccc2)c1,"inconclusive: 2.51 µM [activator, partial curve, poor fit]"
16,O=C(O)C1C2CCC(O2)C1C(=O)Nc1cccc(Cl)c1 (centres undefined),"inconclusive: 23.1 µM [activator, single point]"
17,Cc1cc(C(=O)Nc2sc3c(c2C#N)CCC(C)C3)no1 (centres undefined),"inconclusive: 2.51 µM [activator, full curve]"
18,CCn1c(CO)nc2c1c(=O)[nH]c(=O)n2Cc1ccccc1,"inconclusive: 0.13 µM [inhibitor, single point]"
19,Nc1nn(-c2ccccc2)nc1C(=O)OCc1ccccc1,"inconclusive: 23.1 µM [activator, single point]"
20,Cc1ccc(/C=N/NC(=O)CNC(=O)COc2ccc(Cl)cc2)o1,inactive
21,CN(C)c1ccc(C(=S)N2CCNCC2)cc1,inactive
22,COc1ccc2c(c1)[nH]c1c(=O)n(CCC3=CCCCC3)cnc12,inactive
23,COc1ccc(C2C(C(=O)c3cccs3)=C(O)C(=O)N2Cc2cccnc2)cc1OC (centres undefined),"inconclusive: 14.6 µM [activator, partial curve]"
